# According to patent US20030223993:
# Chains of the proteins cited; added tags and fusions are not shown. A line that says so, or that is headed by a name, gives the form on record, which may keep a tag or linker.
# SXR:RXR heterodimer (SXR, human PXR ortholog) (Homo sapiens), one chain, as listed by the source: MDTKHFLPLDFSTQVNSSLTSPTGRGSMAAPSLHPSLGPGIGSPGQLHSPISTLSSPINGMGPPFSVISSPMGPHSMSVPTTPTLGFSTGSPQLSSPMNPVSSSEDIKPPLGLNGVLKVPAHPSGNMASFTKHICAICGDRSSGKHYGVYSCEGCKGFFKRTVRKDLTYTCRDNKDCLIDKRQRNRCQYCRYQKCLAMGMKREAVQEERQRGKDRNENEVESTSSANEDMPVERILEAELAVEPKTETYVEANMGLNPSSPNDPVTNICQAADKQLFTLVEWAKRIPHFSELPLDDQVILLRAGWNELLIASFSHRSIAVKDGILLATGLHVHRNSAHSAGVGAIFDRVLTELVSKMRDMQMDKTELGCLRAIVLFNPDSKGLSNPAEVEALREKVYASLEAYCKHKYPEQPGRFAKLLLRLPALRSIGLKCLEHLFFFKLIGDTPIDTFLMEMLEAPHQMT
# The exact form of at least one protein or probe is not confirmed. For some assays here: No signal at the amounts used counts as a negative. For some assays here: Tags and fusion partners may be left off the protein sequences shown.
# Columns and labels:
# [1] = target: T1, SXR (full-length) (Homo sapiens) (UniProt O75469); experiment: activity in cells; details: RIF, protein in cells, variant of CYP3A23 DR-3 element, only the site is given
# T1 sequence: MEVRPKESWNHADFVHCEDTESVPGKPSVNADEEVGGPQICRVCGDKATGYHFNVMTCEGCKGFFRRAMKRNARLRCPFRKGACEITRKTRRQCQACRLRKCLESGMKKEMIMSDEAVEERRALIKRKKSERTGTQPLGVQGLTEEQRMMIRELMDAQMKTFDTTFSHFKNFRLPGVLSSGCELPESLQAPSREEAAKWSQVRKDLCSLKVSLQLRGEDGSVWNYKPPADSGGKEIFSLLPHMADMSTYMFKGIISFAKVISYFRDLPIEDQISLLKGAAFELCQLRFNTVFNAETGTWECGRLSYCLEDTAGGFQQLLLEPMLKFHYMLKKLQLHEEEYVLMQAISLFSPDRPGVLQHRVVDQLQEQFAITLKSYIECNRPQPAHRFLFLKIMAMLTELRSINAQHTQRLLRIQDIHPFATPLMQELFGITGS
# PXR:RXR heterodimer = experiment: EMSA; details: CITED Blumberg et al. 1998; efficient binding; protein translated in vitro
# [2] = test system: SXR:RXR heterodimer (SXR, human PXR ortholog) (Homo sapiens); experiment: EMSA; details: CITED Blumberg et al. 1998; efficient binding; protein translated in vitro; protein details: initiator Leu converted to Met in SXR construct
# [3] = activation by PCN, CTZ abolished
sequence,measurement,setting,value
ACAACTTCATGAACT (double strand) [CYP3A23 DR3/M2],activity on this sequence,[1]; [3],not active
TGAACTTCATGAACT (double strand) [CYP3A23 DR-3 element],binding result,PXR:RXR heterodimer,binds
same,binding result,[2],binds
TGAACTTCAAAGGAGGTCA (double strand) [CYP3A23 DR3/IR6],activity on this sequence,"[1]; inducibility by PCN, CTZ rescued",active
TGTTCTTCATGTTCT (double strand) [CYP3A23 DR3/M1],activity on this sequence,[1]; [3],not active
